From publication PMC11317515 come the findings set out here.

Sequences of proteins named here, by UniProt entry; tags and fusion partners are left off. A change or cut given only in a name is not applied to a line headed by its entry.
UniProt P02566: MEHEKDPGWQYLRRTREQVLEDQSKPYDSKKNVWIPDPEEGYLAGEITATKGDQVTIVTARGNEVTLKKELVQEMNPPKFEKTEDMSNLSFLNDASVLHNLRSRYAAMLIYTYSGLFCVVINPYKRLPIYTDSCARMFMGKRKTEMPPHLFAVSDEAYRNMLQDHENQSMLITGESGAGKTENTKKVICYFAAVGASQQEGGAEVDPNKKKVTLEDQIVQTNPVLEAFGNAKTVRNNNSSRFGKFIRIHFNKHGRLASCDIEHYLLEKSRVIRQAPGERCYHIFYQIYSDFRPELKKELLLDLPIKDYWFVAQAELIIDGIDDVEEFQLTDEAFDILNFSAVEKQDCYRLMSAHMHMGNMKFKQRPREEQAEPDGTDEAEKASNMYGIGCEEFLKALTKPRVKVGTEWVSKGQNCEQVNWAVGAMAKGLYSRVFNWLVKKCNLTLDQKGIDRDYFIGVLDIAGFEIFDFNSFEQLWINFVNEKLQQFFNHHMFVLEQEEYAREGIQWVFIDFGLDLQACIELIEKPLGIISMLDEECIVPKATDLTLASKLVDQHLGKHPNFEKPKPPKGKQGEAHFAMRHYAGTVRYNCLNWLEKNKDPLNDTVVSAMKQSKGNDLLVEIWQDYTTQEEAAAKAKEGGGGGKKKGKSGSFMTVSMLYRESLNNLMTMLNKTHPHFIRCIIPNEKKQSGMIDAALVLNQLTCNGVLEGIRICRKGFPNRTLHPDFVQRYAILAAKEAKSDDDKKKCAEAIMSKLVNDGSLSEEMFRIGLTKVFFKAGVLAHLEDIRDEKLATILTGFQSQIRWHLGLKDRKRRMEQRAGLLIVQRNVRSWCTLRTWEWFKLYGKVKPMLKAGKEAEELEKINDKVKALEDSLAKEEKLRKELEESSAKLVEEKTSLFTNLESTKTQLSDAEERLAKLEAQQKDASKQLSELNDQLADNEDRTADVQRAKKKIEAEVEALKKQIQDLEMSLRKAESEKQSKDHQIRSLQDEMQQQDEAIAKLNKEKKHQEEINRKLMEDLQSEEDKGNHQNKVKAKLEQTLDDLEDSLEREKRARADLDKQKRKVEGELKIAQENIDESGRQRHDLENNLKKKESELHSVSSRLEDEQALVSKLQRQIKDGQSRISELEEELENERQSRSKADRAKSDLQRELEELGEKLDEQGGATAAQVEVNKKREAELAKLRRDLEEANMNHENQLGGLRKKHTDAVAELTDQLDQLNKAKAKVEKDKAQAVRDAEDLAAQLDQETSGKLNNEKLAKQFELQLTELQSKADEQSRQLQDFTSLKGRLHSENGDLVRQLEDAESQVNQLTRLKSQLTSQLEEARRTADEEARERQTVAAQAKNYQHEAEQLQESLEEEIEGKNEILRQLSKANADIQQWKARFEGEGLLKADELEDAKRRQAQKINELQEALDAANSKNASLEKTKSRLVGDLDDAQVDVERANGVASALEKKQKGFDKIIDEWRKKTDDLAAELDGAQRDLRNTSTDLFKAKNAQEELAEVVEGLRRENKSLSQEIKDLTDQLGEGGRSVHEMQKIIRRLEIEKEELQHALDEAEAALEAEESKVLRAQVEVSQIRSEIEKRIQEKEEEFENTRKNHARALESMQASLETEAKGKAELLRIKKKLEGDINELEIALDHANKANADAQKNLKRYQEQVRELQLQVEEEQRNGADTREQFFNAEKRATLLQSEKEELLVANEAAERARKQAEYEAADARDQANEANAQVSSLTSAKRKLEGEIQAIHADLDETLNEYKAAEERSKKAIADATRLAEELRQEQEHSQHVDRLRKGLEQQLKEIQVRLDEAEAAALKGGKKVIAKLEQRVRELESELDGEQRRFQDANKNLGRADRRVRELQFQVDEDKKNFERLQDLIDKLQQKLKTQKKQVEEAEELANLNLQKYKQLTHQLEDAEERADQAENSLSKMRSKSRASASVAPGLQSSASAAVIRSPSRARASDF

Substitutions are numbered along the chain they refer to. In names and notes the source's numbering stands. Where two headings read alike, the source gives them in different places. These are yes or no findings as the source states them, for the method shown. For part of these data: In cells and extracts the contact can be indirect. Some results given as binding are weak or reduced against the parent protein; the word gives no strength. Tags and fused reporters may be left off the sequences shown.

Experiment [1] addresses T1, FLAG-NHL-1 (C. elegans) (UniProt Q03601).
T1 sequence: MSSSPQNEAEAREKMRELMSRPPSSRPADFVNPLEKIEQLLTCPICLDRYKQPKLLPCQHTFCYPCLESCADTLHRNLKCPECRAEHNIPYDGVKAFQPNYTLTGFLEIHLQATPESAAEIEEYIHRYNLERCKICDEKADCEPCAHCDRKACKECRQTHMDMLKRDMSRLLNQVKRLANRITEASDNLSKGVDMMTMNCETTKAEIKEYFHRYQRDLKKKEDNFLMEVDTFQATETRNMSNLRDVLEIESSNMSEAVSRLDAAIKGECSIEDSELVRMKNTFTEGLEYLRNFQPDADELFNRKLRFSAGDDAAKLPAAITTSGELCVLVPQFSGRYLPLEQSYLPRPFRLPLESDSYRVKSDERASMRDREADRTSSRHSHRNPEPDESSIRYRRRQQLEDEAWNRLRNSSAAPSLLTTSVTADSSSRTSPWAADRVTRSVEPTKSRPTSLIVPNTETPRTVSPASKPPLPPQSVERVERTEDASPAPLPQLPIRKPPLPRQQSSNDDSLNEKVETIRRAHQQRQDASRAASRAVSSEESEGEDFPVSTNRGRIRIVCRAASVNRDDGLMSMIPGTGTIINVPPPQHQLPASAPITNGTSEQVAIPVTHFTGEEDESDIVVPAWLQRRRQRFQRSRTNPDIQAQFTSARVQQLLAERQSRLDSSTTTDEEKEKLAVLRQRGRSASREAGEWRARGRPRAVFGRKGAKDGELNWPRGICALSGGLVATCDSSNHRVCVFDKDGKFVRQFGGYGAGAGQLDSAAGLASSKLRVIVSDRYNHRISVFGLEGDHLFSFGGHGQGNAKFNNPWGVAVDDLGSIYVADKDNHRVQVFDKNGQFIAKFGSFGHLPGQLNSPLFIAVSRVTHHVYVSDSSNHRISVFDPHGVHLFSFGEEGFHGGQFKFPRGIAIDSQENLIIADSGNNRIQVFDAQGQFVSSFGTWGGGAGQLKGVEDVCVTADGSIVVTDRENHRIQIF
Put plainly: co-IP; anti-FLAG (M2) and Dynabeads Protein A from lysates (NP40 lysis buffer, diluted in PBS with 0.02% Tween-20, 4 °C) of transgenic worms with FLAG-NHL-1 and HA-F40A3.6 in wild-type or unc-54(e1301) background, 25 °C for 24 h before collection; western blot. (Immunoblotting shows a protein as a band on a membrane.)

In experiment [2] the target is T2, NHL-1 (GAL4 two-hybrid fusion) (C. elegans) (UniProt Q03601).
T2 sequence: T1 sequence
Put plainly: two-hybrid; Matchmaker GAL4 yeast two-hybrid system 3, AH109 yeast, AD and BD fusions in varying combinations, growth on SD/-Leu/-Trp/-His at 30 °C for 4-5 days.

The target of experiment [3] is T1, FLAG-NHL-1 (C. elegans). Put plainly: co-IP; anti-FLAG (M2) and Dynabeads Protein A from lysates (NP40 lysis buffer, diluted in PBS with 0.02% Tween-20, 4 °C) of transgenic worms with FLAG-NHL-1 and HA-F40A3.6 in wild-type or unc-54(e1301) background, 25 °C for 24 h before collection; western blot. This is another data set of the same source.
Experiment [4] addresses UNC-54 (myosin heavy chain B, MHC B) (C. elegans) (UniProt P02566). Kind of experiment: co-IP; UNC-54/MHC B antibody, from lysates of transgenic worms with FLAG-NHL-1 and HA-F40A3.6, done as the FLAG co-immunoprecipitation; western blot.
In experiment [5] the target is T3, UNC-45 (endogenous) (C. elegans) (UniProt G5EG62).
T3 sequence: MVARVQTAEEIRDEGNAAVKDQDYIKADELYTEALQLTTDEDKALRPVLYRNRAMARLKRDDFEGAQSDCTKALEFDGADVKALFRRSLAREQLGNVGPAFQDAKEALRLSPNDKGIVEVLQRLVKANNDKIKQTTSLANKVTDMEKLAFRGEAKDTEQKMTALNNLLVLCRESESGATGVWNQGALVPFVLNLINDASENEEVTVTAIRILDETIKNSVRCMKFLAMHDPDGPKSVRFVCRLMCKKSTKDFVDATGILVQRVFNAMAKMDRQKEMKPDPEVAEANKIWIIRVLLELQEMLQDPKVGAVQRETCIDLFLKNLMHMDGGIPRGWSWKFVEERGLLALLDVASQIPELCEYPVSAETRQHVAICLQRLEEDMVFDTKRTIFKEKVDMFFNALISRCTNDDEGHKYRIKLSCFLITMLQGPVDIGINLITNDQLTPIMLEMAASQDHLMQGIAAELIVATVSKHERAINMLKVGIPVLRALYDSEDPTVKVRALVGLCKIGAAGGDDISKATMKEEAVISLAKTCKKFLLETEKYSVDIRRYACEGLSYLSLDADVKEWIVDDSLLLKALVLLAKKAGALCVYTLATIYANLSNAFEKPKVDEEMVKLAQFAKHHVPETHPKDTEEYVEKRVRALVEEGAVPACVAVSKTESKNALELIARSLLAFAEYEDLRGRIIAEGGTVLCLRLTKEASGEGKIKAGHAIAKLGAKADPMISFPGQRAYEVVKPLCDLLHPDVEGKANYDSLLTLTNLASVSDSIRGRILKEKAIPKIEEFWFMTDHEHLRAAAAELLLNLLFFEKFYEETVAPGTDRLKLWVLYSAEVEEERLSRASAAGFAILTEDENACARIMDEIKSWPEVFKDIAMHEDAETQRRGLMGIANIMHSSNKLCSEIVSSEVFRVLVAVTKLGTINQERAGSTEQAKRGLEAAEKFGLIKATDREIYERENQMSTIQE
Kind of experiment: co-IP; UNC-45 antibody, from worm lysates (transgenic worms with FLAG-NHL-1 and HA-F40A3.6; unc-45 mutants), done as the FLAG co-immunoprecipitation; western blot.

In the case of “UNC-54(e1301, p.G387R) (from UniProt P02566 1-1963)”, in the experiment with FLAG-NHL-1 (C. elegans) [1], the binding result is reported as “binds”.

B1: UNC-45 (GAL4 two-hybrid fusion) (protein, UniProt G5EG62 1-961)
chain: T3 sequence
B1: the binding entry in experiment [2] is reported as “binds”.

B2: UNC-45(b131, p.G427E) (GAL4 two-hybrid fusion) (protein, UniProt G5EG62 1-961)
chain: T3 sequence with G427E
Take B2: in experiment [2], the binding entry is recorded as “binds”.

B3: UNC-45 (endogenous) (protein, UniProt G5EG62 1-961)
chain: T3 sequence
For the molecule B3, in the experiment with FLAG-NHL-1 (C. elegans) [3], the binding result is “binds”.

B4: FLAG-NHL-1 (protein, UniProt Q03601 1-974)
chain: T1 sequence
With B4, the binding entry in experiment [4] and in experiment [5] was “binds” each time.
